Values from PubChem BioAssay AID1224830 (NIAID, 2016).
Screen: 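Regulators of TLR4 signalling towards TNF-alpha in macrophage-like cells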 (primary screen). System: human THP-1 monocytic leukaemia cells, TNF dual-luciferase reporter clone, PMA-differentiated to macrophage-like cells. Reagent: siRNA pool against human genes, 50 nM. Duration: LPS for 4 h, given about 3 days after siRNA transfection. Conditions: bacterial LPS (TLR4 ligand), 10 ng/ml. Detection: 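Ratio of firefly to renilla light, scaled to the plate median and expressed as a robust z-score per replicate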. Scale: TNF reporter robust z-score: higher = stronger TNF reporter response to LPS. Hit rule: 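Each well counts as active if its z-score is over 2.8 or under -1.5; controls are left without a call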.
This is an unselected part of about 18,000 reagents tested. Of all reagents, about 2,900 (16%) are marked active. 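Calls are made per well; low scores hint the gene aids the LPS response, high scores that it dampens it.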 Entries without a mark were called inactive. Repeated entries: four replicate wells of each siRNA pool. Reagent sequences are not shown.

target gene	TNF reporter robust z-score
IP6K1 (GeneID 9807)	-1.35
IP6K1 (GeneID 9807)	0.17
IP6K1 (GeneID 9807)	0.46
IP6K1 (GeneID 9807)	-0.25
MAX (GeneID 4149)	-0.96
MAX (GeneID 4149)	-1.28
MAX (GeneID 4149)	-1.43
MAX (GeneID 4149)	-0.15
MED16 (GeneID 10025)	-1.03
MED16 (GeneID 10025)	-0.51
MED16 (GeneID 10025)	-0.21
MED16 (GeneID 10025)	-0.08
SIAH3 (GeneID 283514)	-0.74
SIAH3 (GeneID 283514)	-0.8
SIAH3 (GeneID 283514)	-0.65
SIAH3 (GeneID 283514)	-0.53
MBD2 (GeneID 8932)	-1.15
MBD2 (GeneID 8932)	-0.98
MBD2 (GeneID 8932)	-1.1
MBD2 (GeneID 8932)	-1.22
STEAP3 (GeneID 55240)	0.04
STEAP3 (GeneID 55240)	-0.3
STEAP3 (GeneID 55240)	0.66
STEAP3 (GeneID 55240)	0.26
CTSE (GeneID 1510)	2.43
CTSE (GeneID 1510)	3.86 (active)
CTSE (GeneID 1510)	-0.29
CTSE (GeneID 1510)	2.71
TIGD2 (GeneID 166815)	0.59
TIGD2 (GeneID 166815)	0.44
TIGD2 (GeneID 166815)	-0.7
TIGD2 (GeneID 166815)	0.93
DRP2 (GeneID 1821)	1.5
DRP2 (GeneID 1821)	0.4
DRP2 (GeneID 1821)	-1.09
DRP2 (GeneID 1821)	1.09
LARP6 (GeneID 55323)	-0.02
LARP6 (GeneID 55323)	-0.45
LARP6 (GeneID 55323)	-0.08
LARP6 (GeneID 55323)	-0.92
HHIPL1 (GeneID 84439)	-1.63 (active)
HHIPL1 (GeneID 84439)	-0.47
HHIPL1 (GeneID 84439)	-1.03
FEM1C (GeneID 56929)	0.1
FEM1C (GeneID 56929)	1.11
FEM1C (GeneID 56929)	0.6
FEM1C (GeneID 56929)	-0.51
